Taken from: PubChem BioAssay AID1159584 (Peter MacCallum Cancer Centre, 2016)
Purpose: 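Knock-downs that harm CDH1-null cells more than parental MCF10A cells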 (primary screen). System: human MCF10A breast epithelial cells, parental and CDH1-null. Knock-down reagent: siRNA against human genes. Measurement: 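ATP luminescence (CellTiter-Glo) viability per line relative to mean mock wells over all plates, and the ratio of CDH1-null to parental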. Reading the numbers: CDH1-null / parental viability ratio: higher = CDH1-null cells survive relatively better than parental.
Here is an unselected part of about 18,000 reagents. Not all columns of the deposit are shown. Reagent sequences are not shown. Not stated in the record: the amount of reagent, the time to read-out.

| target gene | CDH1-null / parental viability ratio |
| --- | --- |
| RAPGEF1 | 1.08 |
| VAC14 | 0.77 |
| CCDC146 | 0.86 |
| HOXD1 | 1.08 |
| SERPINF1 | 1.31 |
| CHST12 | 0.87 |
| STK32A | 1.01 |
| TRIM47 | 1.13 |
| SLC22A7 | 0.77 |

Continued, starting with the last 3 of the part before.
| target gene | CDH1-null / parental viability ratio |
| --- | --- |
| STK32A | 1.01 |
| TRIM47 | 1.13 |
| SLC22A7 | 0.77 |
| MTHFR | 1.18 |
| HSPG2 | 0.84 |
| TCL1B | 1.36 |
| TMEM218 | 1.42 |
| CFAP68 | 1.21 |
| SEZ6L | 1.01 |
| PTGR3 | 1.14 |
| GALP | 1.19 |
| XKRX | 1 |
| MIEF1 | 0.76 |
| PROZ | 1.08 |
| STC2 | 1.4 |
| ELP1 | 0.96 |
| CCDC73 | 1.26 |
| SLC35G3 | 1.05 |
| TLX1NB | 1.05 |
| FAM53B | 1.07 |
| SGSM3 | 1.23 |
| FANCD2 | 1.12 |
